No constants are given. Whether binding was seen depends on the method and setting. In cells and extracts the contact can be indirect. Some results given as binding are weak or reduced against the parent protein; the word gives no strength.
Legend:
[1] = biological target: endogenous MDC1 (human (endogenous in 293T, 293 and HeLa)) (UniProt Q14676); assay: co-IP; extracts of 293 cells, 5 Gray ionizing radiation, 1 hr recovery; IP with antibodies against MDC1-tBRCT or MDC1-FHA, Western blot with anti-p53
[2] = biological target: p53 fused to a HA-tag (HA-p53), overexpressed in 293T cells (human) (UniProt P04637); assay: co-IP; 293T cells overexpressing HA-p53, untreated (no NCS); IP with anti-HA antibodies, blot for endogenous MDC1
[3] = biological target: p53 CTD peptide (a.a. 361-393) containing both Ac-K382 and pS392, biotin-labeled (human) (UniProt P04637); assay: pull-down; peptide pull-down of endogenous MDC1 and p53 from nuclear HeLa extract; Western blot; only the target purified
[4] = biological target: unmodified p53 CTD peptide (a.a. 361-393), biotin-labeled (human) (UniProt P04637); assay: as above
[5] = biological target: p53 fused to a HA-tag (HA-p53), overexpressed in 293T cells (human) (UniProt P04637); assay: co-IP; 293T cells overexpressing HA-p53, treated with NCS, 1 hr incubation; IP with anti-HA antibodies, blot for endogenous MDC1; control IP with anti-GST antibodies

By UniProt entry, the sequences of proteins in these tests, tags left out.
UniProt Q14676: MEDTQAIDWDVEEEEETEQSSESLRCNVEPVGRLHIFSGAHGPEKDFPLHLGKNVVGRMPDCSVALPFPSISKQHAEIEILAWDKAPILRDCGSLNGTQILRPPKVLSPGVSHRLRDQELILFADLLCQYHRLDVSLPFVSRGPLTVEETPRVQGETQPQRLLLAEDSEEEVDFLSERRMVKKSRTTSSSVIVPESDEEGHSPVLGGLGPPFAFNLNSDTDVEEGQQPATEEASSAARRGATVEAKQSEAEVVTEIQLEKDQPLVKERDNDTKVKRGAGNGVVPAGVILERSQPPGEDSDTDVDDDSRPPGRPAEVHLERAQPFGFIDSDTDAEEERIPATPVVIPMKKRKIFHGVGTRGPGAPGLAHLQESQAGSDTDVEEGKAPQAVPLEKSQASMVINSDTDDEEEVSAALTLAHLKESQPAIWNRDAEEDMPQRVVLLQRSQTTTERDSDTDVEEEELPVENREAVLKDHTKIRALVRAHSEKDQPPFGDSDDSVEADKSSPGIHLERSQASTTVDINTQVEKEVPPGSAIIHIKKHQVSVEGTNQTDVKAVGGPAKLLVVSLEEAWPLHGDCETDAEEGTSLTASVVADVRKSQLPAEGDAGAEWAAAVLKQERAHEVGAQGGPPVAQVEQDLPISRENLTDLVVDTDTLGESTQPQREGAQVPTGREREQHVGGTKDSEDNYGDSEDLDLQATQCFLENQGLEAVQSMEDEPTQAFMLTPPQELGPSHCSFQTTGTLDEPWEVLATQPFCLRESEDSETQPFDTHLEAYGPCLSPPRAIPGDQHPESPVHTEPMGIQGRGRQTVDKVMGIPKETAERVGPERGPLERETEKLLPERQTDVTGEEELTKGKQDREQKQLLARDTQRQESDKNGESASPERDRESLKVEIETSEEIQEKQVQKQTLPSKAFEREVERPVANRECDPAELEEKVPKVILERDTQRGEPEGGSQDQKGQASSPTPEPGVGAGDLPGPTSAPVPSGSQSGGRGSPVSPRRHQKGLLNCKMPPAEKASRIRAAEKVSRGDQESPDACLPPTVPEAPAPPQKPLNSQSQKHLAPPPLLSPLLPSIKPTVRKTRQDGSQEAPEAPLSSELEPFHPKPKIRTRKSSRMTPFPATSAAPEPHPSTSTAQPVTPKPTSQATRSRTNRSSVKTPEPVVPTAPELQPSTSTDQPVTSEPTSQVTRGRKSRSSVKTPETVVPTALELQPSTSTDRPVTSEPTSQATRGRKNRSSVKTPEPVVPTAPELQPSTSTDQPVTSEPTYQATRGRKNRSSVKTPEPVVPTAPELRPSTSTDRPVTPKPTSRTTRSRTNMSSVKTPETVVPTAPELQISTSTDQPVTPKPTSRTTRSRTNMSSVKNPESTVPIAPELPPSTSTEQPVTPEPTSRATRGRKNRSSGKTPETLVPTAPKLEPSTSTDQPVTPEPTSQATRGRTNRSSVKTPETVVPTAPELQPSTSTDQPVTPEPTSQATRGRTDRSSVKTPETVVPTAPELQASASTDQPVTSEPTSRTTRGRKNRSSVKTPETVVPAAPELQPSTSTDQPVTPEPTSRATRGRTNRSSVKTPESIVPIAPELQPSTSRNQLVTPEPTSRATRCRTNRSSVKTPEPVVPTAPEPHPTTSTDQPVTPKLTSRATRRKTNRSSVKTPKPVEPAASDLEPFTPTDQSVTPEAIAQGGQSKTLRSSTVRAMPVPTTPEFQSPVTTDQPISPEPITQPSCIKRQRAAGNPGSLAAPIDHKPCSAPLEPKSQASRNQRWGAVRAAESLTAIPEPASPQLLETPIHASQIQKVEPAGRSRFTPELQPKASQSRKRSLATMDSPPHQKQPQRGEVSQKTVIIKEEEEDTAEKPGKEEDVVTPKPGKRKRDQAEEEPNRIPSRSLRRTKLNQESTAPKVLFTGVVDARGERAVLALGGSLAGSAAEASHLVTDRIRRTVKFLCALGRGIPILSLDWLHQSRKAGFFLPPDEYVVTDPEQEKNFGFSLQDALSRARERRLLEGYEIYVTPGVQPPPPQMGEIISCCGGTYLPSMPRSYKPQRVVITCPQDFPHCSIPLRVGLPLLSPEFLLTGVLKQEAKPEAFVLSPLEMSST

binding [1] | binding [3] | binding [4] | binding [5] | Substance | binding [2]
binds | – | – | – | endogenous p53 (from UniProt P04637 1-393) | –
– | binds | binds | binds | endogenous MDC1 (from UniProt Q14676 1-2089) | no binding (condition: cells not treated with NCS)
